Results deposited as PubChem BioAssay AID1053208 (Peter MacCallum Cancer Centre, 2014)
This is one part, drawn at random, of about 17,000 deposited reagents. 788 of all reagents (4.7%) count as active. 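Calls rest on z-score classes alone; an extra cut-off of viability at most 70% of control was not applied to them.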 Further read-outs or replicates are left out here.

Test: 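Find knock-downs that sensitise mouse osteosarcoma cells to doxorubicin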 (primary screen)
Cells: mouse osteosarcoma cells, early-passage culture from an engineered mouse model of fibroblastic bone tumour
Knock-down reagent: siRNA pool against mouse genes, 40 nM
Time to read-out: about 120 h (48 h before drug, then 72 h with drug)
Conditions: doxorubicin 100 nM for 72 h, roughly 30-40% inhibitory dose
Detection: 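Viability read as ATP luminescence after 72 h of 100 nM doxorubicin or none, duplicate wells averaged, scaled to non-targeting siRNA, then expressed as robust z-scores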
Direction: viability z-score with doxorubicin: higher = more viable cells under doxorubicin; viability z-score without drug: higher = more viable cells with knock-down alone
Call rule: 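Called active if knock-down leaves viability unchanged without drug (z within -2 to 2) but lowers it with doxorubicin (z at or under -2)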

Knock-down of Msi1 (musashi RNA-binding protein 1) gave: combined z-score class no change with or without drug; viability z-score with doxorubicin -0.45; viability z-score without drug -1.35; inactive.
Ap1m2 (adaptor protein complex AP-1, mu 2 subunit) showed combined z-score class high cell count without drug only; viability z-score with doxorubicin 0.22; viability z-score without drug 2.53; inactive.
With knock-down of Kazn (kazrin, periplakin interacting protein), the record shows combined z-score class no change with or without drug; viability z-score with doxorubicin 0.67; viability z-score without drug 0.34; inactive.
Son (Son DNA binding protein) gave combined z-score class low cell count with and without drug; viability z-score with doxorubicin -3.15; viability z-score without drug -2.36; inactive.
Smyd5 (SET and MYND domain containing 5) showed combined z-score class no change with or without drug; viability z-score with doxorubicin -1.24; viability z-score without drug -0.84; inactive.
Against Pfkfb3 (6-phosphofructo-2-kinase/fructose-2,6-biphosphatase 3), the entry reads combined z-score class no change with or without drug; viability z-score with doxorubicin 1.35; viability z-score without drug 1.35; inactive.

2 successive records already listed:
Smyd5 (SET and MYND domain containing 5) | combined z-score class: no change with or without drug; viability z-score with doxorubicin: -1.24; viability z-score without drug: -0.84; call: inactive
Pfkfb3 (6-phosphofructo-2-kinase/fructose-2,6-biphosphatase 3) | combined z-score class: no change with or without drug; viability z-score with doxorubicin: 1.35; viability z-score without drug: 1.35; call: inactive

Next reagents follow.
After knock-down of Arl5b (ADP-ribosylation factor-like 5B), the screen gave combined z-score class no change with or without drug; viability z-score with doxorubicin -0.34; viability z-score without drug 0; inactive.
Dnmt3a (DNA methyltransferase 3A) scored combined z-score class no change with or without drug; viability z-score with doxorubicin 0.67; viability z-score without drug 0.51; inactive.
With knock-down of Dhx38 (DEAH-box helicase 38), the record shows combined z-score class no change with or without drug; viability z-score with doxorubicin 0.45; viability z-score without drug 0.67; inactive.
Against Or4c125 (olfactory receptor family 4 subfamily C member 125), the values are combined z-score class no change with or without drug; viability z-score with doxorubicin 0.9; viability z-score without drug 0.51; inactive.
For Tspan17 (tetraspanin 17), the values are combined z-score class no change with or without drug; viability z-score with doxorubicin 0.67; viability z-score without drug 1.18; inactive.
Wdr12 (WD repeat domain 12) scored combined z-score class no change with or without drug; viability z-score with doxorubicin -0.79; viability z-score without drug -1.85; inactive.
With knock-down of Foxj2 (forkhead box J2), the record shows combined z-score class no change with or without drug; viability z-score with doxorubicin -0.22; viability z-score without drug 0.84; inactive.
Against Cdk5r1 (cyclin dependent kinase 5, regulatory subunit 1) the deposit lists combined z-score class no change with or without drug; viability z-score with doxorubicin 1.12; viability z-score without drug 0.67; inactive.
After knock-down of Lrriq3 (leucine-rich repeats and IQ motif containing 3), the screen gave combined z-score class no change with or without drug; viability z-score with doxorubicin -0.67; viability z-score without drug -0.17; inactive.
With knock-down of Rhpn1 (rhophilin, Rho GTPase binding protein 1), the screen gave combined z-score class no change with or without drug; viability z-score with doxorubicin 0.22; viability z-score without drug 0.17; inactive.
Silencing of Hmgn5 (high-mobility group nucleosome binding domain 5) came out at: combined z-score class no change with or without drug; viability z-score with doxorubicin -1.12; viability z-score without drug -0.51; inactive.
5330416C01Rik (RIKEN cDNA 5330416C01 gene) scored combined z-score class no change with or without drug; viability z-score with doxorubicin 1.01; viability z-score without drug 1.35; inactive.
For Ube2b (ubiquitin-conjugating enzyme E2B), the values are combined z-score class no change with or without drug; viability z-score with doxorubicin -1.12; viability z-score without drug -0.17; inactive.
